Laboratory results published in PubChem BioAssay AID1688 (National Center for Advancing Translational Sciences (NCATS), 2009).
Screen size: about 220,000 compounds; about 2,400 (1.1%) were called active. Inconclusive results, whose numbers are uncertain, are shown with a selection of clear calls. Calls come from the whole dose curve; as a rule, active = well fitted inhibition curve with a large enough effect; inconclusive = small, poorly fitted or top-dose-only effect, or effect the other way; inactive = no such curve, though single readings can be large or run the other way. Where the call is inconclusive, the potency comes from a doubtful curve fit.

experiment: qHTS Multiplex Assay to Identify Dual Action Probes in a Cell Model of Huntington: Aggregate Formation (GFP); settings: PC12 HttQ103-GFP aggregates, Acumen cytometry, 40 h; activity change, negative = inhibition: at 46.1 µM (top of the series) unless noted; note: nearly all actives have a fitted effect of over 60% in size
Outline: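 Steps: seed 1500 PC12 HTTQ103-GFP cells/well; add tebufenozide, 100 nM final; add compound titration; add ATPLite reagent; quantify GFP aggregates by laser scanning cytometry.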
% is set by controls: 0 for no effect and ±100 for the full control effect; potency is the fitted concentration of half-maximal effect.

Structure (SMILES)	Potency	activity change, negative = inhibition
O=C(NC(C(=O)c1ccccc1)N1CCCCCC1)c1ccco1 (stereo unspecified)	inactive	–
Cc1nc2ccccn2c1C(=O)OCC#N	–	inactive: -33.4% [at 9.22 µM]
CC(C)(C)C(=O)/C=C/Nc1ccccc1O	inconclusive: 1.26 µM [activator, partial curve]	–
CCn1c(SCc2ccc(C#N)cc2)nnc1-c1ccc(S(=O)(=O)N2CCCCC2)cc1	inconclusive: 35.5 µM [inhibitor, partial curve]	–
Cc1ccc(N(CN2CCCC2=O)C(=O)c2ccc(OC(C)C)cc2)cc1	inconclusive: 1.12 µM [activator, single point]	–
Cc1ccc(S(=O)(=O)NCc2nc3ccccc3c(=O)n2N)cc1	inconclusive: 10 µM [inhibitor, partial curve]	–
Cc1cc(NC(=O)c2cc(C(C)C)on2)nn1Cc1ccc(Cl)cc1	inconclusive: 6.31 µM [activator, partial curve]	–
COc1cc(NC(=O)Cc2nn(C)c(=O)c3ccccc23)cc(OC)c1	inconclusive: 20 µM [inhibitor, single point]	–
CCCOc1ncnc2c1[nH]c1ccccc12	inconclusive: 10 µM [inhibitor, partial curve]	–
COc1ccc2c(C)cc(SCC(=O)Nc3ccc(Cl)cn3)nc2c1	inactive	–
O=C(Nc1ccc(OC(F)(F)F)cc1)Nc1cccc([N+](=O)[O-])c1	inconclusive: 28.2 µM [inhibitor, single point]	–
CCNC(=S)N/N=C/c1cccc(C)c1	inconclusive: 31.6 µM [activator, single point]	–
CCc1ccc(/C=C/C(=O)c2c(C)cc(C)[nH]c2=O)cc1	active: 25.1 µM	–
CCOc1ccccc1CNS(=O)(=O)c1ccc2[nH]c(=O)sc2c1	active: 12.6 µM	–
CCCc1cc2c(=O)c(-c3ccc4c(c3)OCCO4)c(C)oc2cc1OS(C)(=O)=O	inconclusive: 11.2 µM [inhibitor, partial curve]	–
COc1ccc2c(c1)CC/C(=C\c1ccc(OC)c(Cn3cccn3)c1)C2=O	inconclusive: 35.5 µM [inhibitor, single point]	–
Cc1cccc(CSc2cccc3cccnc23)c1	inconclusive: 35.5 µM [inhibitor, single point]	–
CC(=O)c1cccc(NC(=S)NNC(=O)c2ccco2)c1	inconclusive: 1 µM [activator, full curve]	–
CCOc1ccc(NC(=NCc2ccc3c(c2)OCO3)SC2CC(=O)N(c3ccc(OCC)cc3)C2=O)cc1 (stereo unspecified)	inactive	–
Cc1noc2ncnc(Sc3ccc(Br)cc3)c12	inconclusive: 22.4 µM [inhibitor, single point]	–
Cc1cc(/C=C2\C(=N)N3C(SCc4ccccc4)=NSC3=NC2=O)c(C)n1Cc1ccccc1	inactive	–
Cc1csc(NC(=O)[C@@H](NC(=O)c2ccccc2)C(C)C)n1	inconclusive: 0.0045 µM [inhibitor, full curve, poor fit]	–
CCOC(=O)CC1C(=O)NCCN1c1nc2ccc(C)cn2c(=O)c1/C=C1\SC(=S)N(C(C)CC)C1=O (stereo unspecified)	–	inactive: -21.8% [at 9.22 µM]
CCCCOc1ncnc2c1[nH]c1ccccc12	active: 3.98 µM	–

Structure (SMILES)	Potency	activity change, negative = inhibition
CC(C)c1ncc([N+](=O)[O-])n1C	inactive	–
O=C(/C=C/c1ccccc1)N1CCN(c2c(Cl)cccc2[N+](=O)[O-])CC1	inconclusive: 35.5 µM [inhibitor, single point]	–
CO/N=C(\Cn1ncc(NC2CCCCC2)c(Br)c1=O)c1ccc(Cl)cc1	inconclusive: 22.4 µM [inhibitor, single point]	–
COc1ccc(C2CC(c3ccccc3)=NN2C(=O)COC(=O)C2(C)CC2(Cl)Cl)cc1 (stereo unspecified)	inconclusive: 35.5 µM [inhibitor, single point]	–
COc1ccc2c(c1)Sc1ccccc1N2	active: 7.94 µM	–
CN(C(=S)NC(=O)Cc1ccccc1)c1ccccc1	inactive	–
COc1cc(C(=O)N2CCN(c3ncnc4sc(C)c(C)c34)CC2)cc(OC)c1OC	inconclusive: 10 µM [inhibitor, partial curve]	–
CC1CCN(S(=O)(=O)c2ccc3c(c2)oc(=O)n3CC(=O)N2c3ccccc3CC2C)CC1 (stereo unspecified)	inactive	–
CCCCN(CCCC)c1nc2ccccc2nc1C(C#N)C(=O)NCCCOC (stereo unspecified)	inconclusive: 35.5 µM [inhibitor, single point]	–
N#Cc1ccccc1CSC1=NCCS1	–	inactive: -16.3% [at 9.22 µM]
COc1ccc(-n2c(=S)[nH]c3c(sc(=S)n3-c3ccccc3)c2=O)c(OC)c1	inactive	–
O=C(c1ccc2nc(N3CCCCC3)sc2c1)N1CCN(Cc2ccc3c(c2)OCO3)CC1	inconclusive: 12.6 µM [inhibitor, single point]	–
O=C(NC1CCCCC1)C1CCC(CNS(=O)(=O)c2cccc3nsnc23)CC1 (stereo unspecified)	inactive	–
COc1ccc(C(=O)NNC2=NC(C)(C)Cc3cc(C)c(C)cc32)cc1	inconclusive: 4.47 µM [inhibitor, partial curve]	–
O=C(Nc1cccc(S(=O)(=O)Nc2ccc(Cl)cc2)c1)c1ccc2c(c1)OCCO2	inconclusive: 11.2 µM [inhibitor, single point]	–
Oc1ccc(/C=N/Nc2ncc(Br)cn2)c(O)c1	active: 12.6 µM	–
CC(C)CN1C=C2C(=O)C(C)(OC(=O)C3CCCC3)C(=O)C=C2C=C1c1ccsc1 (stereo unspecified)	–	inactive: 20.4% [at 9.22 µM]
Cc1cccc(NC(=O)CN2C(=O)N/C(=C/c3ccc(-c4cccc(C(=O)O)c4C)o3)C2=O)c1	–	inactive: -1.08% [at 9.22 µM]
CCOC(=O)N1CCN(C(=O)C2CCN(c3ncnc4c3sc3cccc(F)c34)CC2)CC1	active: 10 µM	–
CSc1cc(/C=N/O)c(SC)s1	active: 12.6 µM	–
C=CCN(Cc1nc(-c2ccc(OC)c(OC)c2)oc1C)C1CCS(=O)(=O)C1 (stereo unspecified)	–	inactive: 7.57% [at 9.22 µM]
CCCC1=Nc2cc(C(=O)NCc3ccco3)ccc2Sc2ccccc21	inconclusive: 31.6 µM [activator, single point]	–
O=[N+]([O-])c1ccc(NNC(=S)Nc2ccccc2)cc1	inconclusive: 35.5 µM [inhibitor, single point]	–
Cn1cc(CN(CCCN2CCOCC2)C(=S)Nc2cccc(Cl)c2)c2ccccc21	inconclusive: 35.5 µM [inhibitor, single point]	–

Rewritten with bars between the fields: 2 of the compounds above.
Structure (SMILES) | Potency | activity change, negative = inhibition
COc1cc(C(=O)N2CCN(c3ncnc4sc(C)c(C)c34)CC2)cc(OC)c1OC | inconclusive: 10 µM [inhibitor, partial curve] | –
CC1CCN(S(=O)(=O)c2ccc3c(c2)oc(=O)n3CC(=O)N2c3ccccc3CC2C)CC1 (stereo unspecified) | inactive | –

Later entries

Structure (SMILES)	Potency	activity change, negative = inhibition
CCC(=O)Nc1c(C)cc(C)cc1Cl	–	inactive: 0.297% [at 9.22 µM]
Cc1ccc(S(=O)(=O)NC2CCCc3ccccc32)cc1C (stereo unspecified)	inconclusive: 35.5 µM [inhibitor, single point]	–
CC1Oc2ccccc2N(Cc2ccccc2Cl)C1=O (stereo unspecified)	inconclusive: 12.6 µM [activator, partial curve]	–
COc1ccc(C(C(=O)NC2CCCCC2)N(C(=O)CCl)c2ccc(OC)cc2)cc1 (stereo unspecified)	inconclusive: 35.5 µM [inhibitor, single point]	–
COc1cc(CNC2CCCCC2OC)cc(OC)c1OC (stereo unspecified)	inactive	–
COc1ccc2[nH]c(=O)c(CN(Cc3cccs3)C(=S)Nc3ccccc3)cc2c1	inconclusive: 11.2 µM [inhibitor, single point]	–
CC(C(=O)Nc1nccs1)c1ccc([N+](=O)[O-])cc1 (stereo unspecified)	inconclusive: 35.5 µM [activator, partial curve, poor fit]	–
Cc1nc(C(F)(F)F)c(C(=O)N/N=C(\N)c2ccccn2)s1	active: 22.4 µM	–
O=C(Cn1ncc(Cl)c(Cl)c1=O)N1CCc2ccccc21	inconclusive: 28.2 µM [inhibitor, single point]	–
CCCCn1c(CCCNC(=O)CC)nc2ccccc21	inconclusive: 1 µM [activator, single point]	–
COc1cc(C(=O)N2CCN(c3ccc(C)cc3C)CC2)cc(OC)c1OC	inconclusive: 2.24 µM [activator, partial curve, poor fit]	–
CN(C)S(=O)(=O)c1cccc(NC(=O)CSc2nc3ccccc3[nH]2)c1	inconclusive: 14.1 µM [inhibitor, single point]	–
COc1ccc(-c2noc(CCC(=O)N3CCN(Cc4ccccc4)CC3)n2)cc1	inconclusive: 35.5 µM [inhibitor, single point]	–
COc1ccc(CCN2CC(C#N)=C3c4cc(OC)c(OC)cc4CCN3C2)cc1OC	inconclusive: 20 µM [inhibitor, single point]	–
CC(c1ccco1)N(C(=O)COc1ccc(Cl)cc1Cl)c1ccccn1 (stereo unspecified)	inconclusive: 0.501 µM [inhibitor, full curve, poor fit]	–
COc1cc(CN2CCc3ccccc3C2)ccc1O	inconclusive: 6.31 µM [inhibitor, single point]	–
O=C(O)Cn1cccc1C(=O)c1ccccc1	inactive	–
Cc1ccccc1-n1c(C)cc(/C=C2/C(=N)N3C(c4ccccc4)=CSC3=NC2=O)c1C	inactive	–
COc1ccccc1N1CCN(C(=O)c2sc3nc(-c4ccc(F)cc4)cn3c2C)CC1	inconclusive: 20 µM [inhibitor, single point]	–
COc1cc(C(=O)NC(=S)N(CCc2ccccc2)CCc2ccccc2)cc(OC)c1OC	inconclusive: 14.1 µM [inhibitor, single point]	–
CCC(=O)c1ccc(N2CCCC2)c(F)c1	inactive	–
O=C(c1ccccn1)N1CCN(c2ccc(C(F)(F)F)cn2)CC1	inconclusive: 35.5 µM [inhibitor, single point]	–
N#Cc1c(N)nc2c3c(sc(=N)c2c1N)NC(=O)CC3c1c(F)cccc1Cl (stereo unspecified)	inconclusive: 25.1 µM [activator, single point]	–
